Measured values reported in patent US7041458B2, “Methods and reagents for determining protein S” (priority 1996, dated 2006).
These are yes or no findings as the source states them, for the method shown. Some entries that bind do so weakly or less than the wild type.

Chains of the proteins cited; added tags and fusions are not shown. Lines headed by an entry give the natural chain unless they say otherwise; changes in a name come on top.
UniProt P04003: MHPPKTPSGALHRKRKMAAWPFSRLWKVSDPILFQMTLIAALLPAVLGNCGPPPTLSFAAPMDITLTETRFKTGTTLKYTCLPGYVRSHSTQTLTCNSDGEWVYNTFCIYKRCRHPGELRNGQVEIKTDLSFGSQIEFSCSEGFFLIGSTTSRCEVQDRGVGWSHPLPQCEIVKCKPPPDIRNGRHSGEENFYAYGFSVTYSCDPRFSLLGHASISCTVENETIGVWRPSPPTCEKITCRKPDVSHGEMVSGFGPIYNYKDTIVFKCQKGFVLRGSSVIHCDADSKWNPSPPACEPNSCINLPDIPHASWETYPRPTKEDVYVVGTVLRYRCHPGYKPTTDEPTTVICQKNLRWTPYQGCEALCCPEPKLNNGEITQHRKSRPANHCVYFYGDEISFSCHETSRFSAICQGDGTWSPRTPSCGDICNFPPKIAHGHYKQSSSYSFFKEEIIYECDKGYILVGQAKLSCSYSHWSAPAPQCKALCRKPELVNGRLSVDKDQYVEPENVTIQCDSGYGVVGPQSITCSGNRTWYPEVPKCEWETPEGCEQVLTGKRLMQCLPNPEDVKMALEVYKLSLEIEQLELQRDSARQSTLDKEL
UniProt P20851: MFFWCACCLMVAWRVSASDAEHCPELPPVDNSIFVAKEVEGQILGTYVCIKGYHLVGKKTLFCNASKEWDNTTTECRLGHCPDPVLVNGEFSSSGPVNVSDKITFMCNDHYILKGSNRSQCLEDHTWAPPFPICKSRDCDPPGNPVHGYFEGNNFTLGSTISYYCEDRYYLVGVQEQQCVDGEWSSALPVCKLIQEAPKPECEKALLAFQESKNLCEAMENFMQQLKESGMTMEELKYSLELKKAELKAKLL

molecular target: T1, C4b-binding protein (C4BP), species containing the protein S binding β-chain, purified from human plasma (human) (UniProt P04003+P20851); test: SPR (BIAcore) competition: 50 nM human protein S mixed with peptide, flowed over immobilised C4BP (8000 RU), HC buffer; percent protein S bound calculated from the response

binding, binds:
SGIAQFHIDYNNVSSAEGWHVN [SL6 synthetic peptide (protein S residues 447-468)]
LVTVEKGSYYPGSGIAQFHIDYNNVSSAEGWHVN [SL7 synthetic peptide (protein S residues 435-468)]
EKGSYYPGSGIAQFHIDYNNVS [SL2 synthetic peptide (protein S residues 439-460)]

molecular target: T1, C4b-binding protein (C4BP), species containing the protein S binding β-chain, purified from human plasma (human); test: competition, equilibrium binding in microtiter wells: peptide against a trace of 125I-labelled human protein S on immobilised C4BP, TBS with 10 mM EDTA, 4 °C overnight, gamma counting

binding, binds:
SGIAQFHIDYNNVSSAEGWHVN [SL6 synthetic peptide (protein S residues 447-468)]
LVTVEKGSYYPGSGIAQFHIDYNNVSSAEGWHVN [SL7 synthetic peptide (protein S residues 435-468)]
EKGSYYPGSGIAQFHIDYNNVS [SL2 synthetic peptide (protein S residues 439-460)]
